The source of these data is US20040220249A1, “Prevention of surgical adhesions using selective COX-2 inhibitors” (Children's Medical Center Corporation, priority 2003, published 2004).

The subject of the assay is endothelium (CD31/PECAM-1) of granulation tissue. The assay is described as follows: Microvessel density of granulation tissue surrounding the silicone patch (CD31 immunostaining, image analysis). It is filed as in vivo, mice (C57BL/6). The note with it: day 10; CD31-stained area as proportion of total area; mean ± SEM; control 6.4±0.6. As to the method: Silicone patches and abdominal wall were fixed at 4 degrees Celsius in 10% formalin overnight and washed with phosphate buffered saline. The specimens were then embedded in paraffin and 5 micron sections were cut. Endothelial cells were identified by antibody staining against the endothelial cell surface antigen CD31 (PECAM-1) and a diaminobenzidine chromogen (BD Biosciences Pharmingen, San Diego, Calif.). After deparaffinization and rehydration, sections were incubated with proteinase K (Roche, Basel, Switzerland) for 30 min at 37° C. Non-specific binding sites were blocked for 30 min at room temperature with TNB blocking buffer (NEN Life Sciences, Boston, Mass.). Primary CD31 antiserum (Pharmingen) was added to the sections overnight at 4° C. […]
Sections were taken from the abdominal wall, patch, and lesions at sacrifice on day 10. To quantitate vessel density, CD31 immunostained sections underwent digital image analysis using a Nikon Eclipse TE300 inverting photomicroscope with an attached Spot RT (Diagnostic Instruments Inc.) video camera linked to a personal computer. […] The proportion of the selected color was calculated as a percentage of total area and used as a measure of vessel density. Sections from 3 different mice for each of the study groups were examined and vascularization was scanned and quantified in 5 representative fields per section.

Regarding `COc1ccc2cc([C@H](C)C(=O)O)ccc2c1` [naproxen], the “microvessel density of granulation tissue surrounding the silicone patch” value amounted to 11.4±1.2.
